Results deposited as PubChem BioAssay AID743454 (Peter MacCallum Cancer Centre, 2014).
In all, the deposit lists about 18,000 reagents; below is a part drawn at random. 450 of them (2.5%) count as active. 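Single biological run; no consistent viability z cut-off exists, so the class columns, not z-scores, define the calls.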 Entries without a mark were called inactive.

- Test: 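Knock-downs lowering viability or raising caspase 3/7 activity in vorinostat-treated resistant cells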 (primary screen)
- Cell system: human HCT116-VR colon cancer cells, selected for vorinostat resistance
- Knock-down reagent: siRNA pool against human genes, 40 nM siRNA pool
- Duration: vorinostat for 24 h, read-out about 72 h after transfection
- Challenge: vorinostat at 2.5 µM final
- Measurement: 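Cell viability by CellTiter-Fluor and caspase 3/7 activity by luminescence, each scaled to mock wells per plate, duplicates averaged, then robust z-scored over all plates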
- Reading the numbers: viability robust z-score: higher = more viable cells than screen typical; caspase robust z-score: higher = more caspase 3/7 activity than screen typical
- Rule for the call: 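Hits are knock-downs in viability class RV1/RV2 or caspase class CA1/CA2, excluding ones that killed cells in the no-drug cell-count arm; hits then retested with single siRNAs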

SHLD1 (GeneID 149840) → viability hit class = no change; caspase hit class = no change; viability robust z-score = 0.64; caspase robust z-score = -0.63
CRISP1 (GeneID 167) → viability hit class = no change; caspase hit class = no change; viability robust z-score = 0.48; caspase robust z-score = -0.3
MYOF (GeneID 26509) → viability hit class = no change; caspase hit class = no change; viability robust z-score = -0.26; caspase robust z-score = 0.62
RTN4 (GeneID 57142) → viability hit class = no change; caspase hit class = no change; viability robust z-score = -1.44; caspase robust z-score = -0.11
JPT2 (GeneID 90861) → viability hit class = no change; caspase hit class = no change; viability robust z-score = 0.44; caspase robust z-score = -0.5
BCOR (GeneID 54880) → viability hit class = no change; caspase hit class = no change; viability robust z-score = 0.82; caspase robust z-score = 0.34
CCT7 (GeneID 10574) → viability hit class = no change; caspase hit class = no change; viability robust z-score = -1.17; caspase robust z-score = -0.35
UMODL1 (GeneID 89766) → viability hit class = no change; caspase hit class = no change; viability robust z-score = 0.42; caspase robust z-score = -0.64
MYLK (GeneID 4638) → viability hit class = no change; caspase hit class = no change; viability robust z-score = -0.42; caspase robust z-score = -0.69
PSMG1 (GeneID 8624) → viability hit class = no change; caspase hit class = no change; viability robust z-score = 1.29; caspase robust z-score = -0.66

Next part; the last 2 above are carried over.
MYLK (GeneID 4638) → viability hit class = no change; caspase hit class = no change; viability robust z-score = -0.42; caspase robust z-score = -0.69
PSMG1 (GeneID 8624) → viability hit class = no change; caspase hit class = no change; viability robust z-score = 1.29; caspase robust z-score = -0.66
CT47A8 (GeneID 728049) → viability hit class = no change; caspase hit class = no change; viability robust z-score = -0.44; caspase robust z-score = 1.98
METTL14 (GeneID 57721) → viability hit class = no change; caspase hit class = no change; viability robust z-score = 0.76; caspase robust z-score = 0.08
RBMXL2 (GeneID 27288) → viability hit class = no change; caspase hit class = no change; viability robust z-score = 0.99; caspase robust z-score = 1.08
OR13C5 (GeneID 138799) → viability hit class = no change; caspase hit class = no change; viability robust z-score = -0.11; caspase robust z-score = -0.5
JMJD8 (GeneID 339123) → viability hit class = no change; caspase hit class = no change; viability robust z-score = 0.61; caspase robust z-score = -1
SSTR4 (GeneID 6754) → viability hit class = no change; caspase hit class = no change; viability robust z-score = -1.36; caspase robust z-score = -0.4
PHAF1 (GeneID 80262) → viability hit class = no change; caspase hit class = no change; viability robust z-score = 0.34; caspase robust z-score = -0.1
TOMM20L (GeneID 387990) → viability hit class = no change; caspase hit class = no change; viability robust z-score = 0.34; caspase robust z-score = -0.2
NTN5 (GeneID 126147) → viability hit class = no change; caspase hit class = no change; viability robust z-score = -0.64; caspase robust z-score = 2.34
DAZAP2 (GeneID 9802) → viability hit class = no change; caspase hit class = no change; viability robust z-score = -0.2; caspase robust z-score = -0.61
MMS19 (GeneID 64210) → viability hit class = no change; caspase hit class = no change; viability robust z-score = 0.58; caspase robust z-score = -0.74
